The values below come from patent US20190055321A1.

By UniProt entry, the sequences of proteins in these tests, tags left out. Residues count along the entry.
UniProt P20334, residues 24-256: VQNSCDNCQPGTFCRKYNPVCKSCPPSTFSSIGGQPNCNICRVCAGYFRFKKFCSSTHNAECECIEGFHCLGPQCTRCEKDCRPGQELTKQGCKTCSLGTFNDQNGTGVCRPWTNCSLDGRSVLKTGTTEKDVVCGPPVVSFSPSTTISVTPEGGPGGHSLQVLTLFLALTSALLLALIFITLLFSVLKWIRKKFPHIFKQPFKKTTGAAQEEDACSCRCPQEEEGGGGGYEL

These are yes or no findings as the source states them, for the method shown. Some results given as binding are weak or reduced against the parent protein; the word gives no strength.

The assay concerns the target CD137 on CD8+ ConA activated splenocytes / activated OT-1 CD8 T cells (UniProt P20334). Kind of assay: flow cytometry on CD8+ ConA activated splenocytes, mean fluorescence units, Alexa 488 secondary. A general note: In flow cytometry, cells or beads pass a laser one at a time.

B1: CD137 Ab proper (anti-CD137 antibody, chimeric, rat variable regions and mouse IgG1 heavy chain constant region) (antibody, V domains shown)
VH: QVQLKEAGPGLVQPTQTLSLTCTVSGFSLTSDGVHWIRQPPGKGLEWMGIIYYDGGTDYNSAIKSRLSISRDTSKSQVFLKINSLQTDDTAMYYCARIHFDYWGQGVMVTVSS
VL: EIVLTQSPTTIAASPGEKVTITCRASSSVSYMYWYQQKSGASPKLWIYDTSKLASGVPNRFSGSGSGTSYSLAINTMETEDAATYYCQQWSSTPLTFGSGTKLEIKR
On to B1, for which the binding entry is “binds”.
